Experimental data as given in paper PMC6536566.
Results are given in words; binding and its absence hold for the method and conditions named. For some assays here: In cells and extracts the contact can be indirect. Some binding calls cover weakened binding; strength is not graded here. For some assays here: Where a sequence is shown, tags or fusion partners need not be part of it. One block for each binder: values may come before it.

How the values were obtained:
[1] = target: T1, BD-SAPK10 (rice (Oryza sativa)) (UniProt Q75H77); experiment: two-hybrid; Matchmaker GAL4 Two-Hybrid System 3, yeast AH109; BD-SAPK10 as bait (pGBKT7), AD fusions as prey (pGADT7); growth on SD without leucine, tryptophan and histidine, with 15 mM 3-AT
T1 sequence: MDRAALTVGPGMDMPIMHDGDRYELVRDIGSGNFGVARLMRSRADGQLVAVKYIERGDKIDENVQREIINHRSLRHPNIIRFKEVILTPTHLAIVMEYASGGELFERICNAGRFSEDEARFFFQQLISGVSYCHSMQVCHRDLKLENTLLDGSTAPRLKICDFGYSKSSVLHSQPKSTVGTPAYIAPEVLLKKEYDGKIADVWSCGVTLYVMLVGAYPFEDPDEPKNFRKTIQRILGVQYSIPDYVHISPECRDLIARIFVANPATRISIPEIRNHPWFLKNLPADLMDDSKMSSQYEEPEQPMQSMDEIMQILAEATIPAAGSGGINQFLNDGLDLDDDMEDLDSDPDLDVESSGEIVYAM

[2] = target: T2, VN-SAPK10 (rice (Oryza sativa)) (UniProt Q75H77); experiment: split reporter; BiFC with Venus halves (VN, VC) co-expressed in rice protoplasts; confocal microscopy; ER-mCherry as internal control, Venus signal/mCherry signal
T2 sequence: T1 sequence

[3] = target: T3, OsPP2C50-GFP (rice (Oryza sativa)) (UniProt Q6L5H6); experiment: co-IP; GFP fusion and Flag- or HA-tagged protein co-expressed in rice protoplasts; cellular extracts on GFP-trap beads, 4 °C, 2 h; 150 mM NaCl, 50 mM Tris-HCl pH 7.5, 0.5% NP40, 0.5% Triton X-100; immunoblot
T3 sequence: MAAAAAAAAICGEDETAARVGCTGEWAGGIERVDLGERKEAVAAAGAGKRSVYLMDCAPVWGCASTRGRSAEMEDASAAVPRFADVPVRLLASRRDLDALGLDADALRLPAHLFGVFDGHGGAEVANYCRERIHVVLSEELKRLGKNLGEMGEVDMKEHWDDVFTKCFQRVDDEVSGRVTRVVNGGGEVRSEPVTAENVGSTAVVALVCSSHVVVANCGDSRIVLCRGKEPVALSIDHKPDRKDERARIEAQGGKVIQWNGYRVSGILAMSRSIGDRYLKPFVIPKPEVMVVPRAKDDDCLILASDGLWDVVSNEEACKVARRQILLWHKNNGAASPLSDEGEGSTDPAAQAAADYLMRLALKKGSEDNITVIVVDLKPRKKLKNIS

[4] = target: T4, OsPP2C53-GFP (rice (Oryza sativa)) (UniProt Q6L4R7); experiment: as above
T4 sequence: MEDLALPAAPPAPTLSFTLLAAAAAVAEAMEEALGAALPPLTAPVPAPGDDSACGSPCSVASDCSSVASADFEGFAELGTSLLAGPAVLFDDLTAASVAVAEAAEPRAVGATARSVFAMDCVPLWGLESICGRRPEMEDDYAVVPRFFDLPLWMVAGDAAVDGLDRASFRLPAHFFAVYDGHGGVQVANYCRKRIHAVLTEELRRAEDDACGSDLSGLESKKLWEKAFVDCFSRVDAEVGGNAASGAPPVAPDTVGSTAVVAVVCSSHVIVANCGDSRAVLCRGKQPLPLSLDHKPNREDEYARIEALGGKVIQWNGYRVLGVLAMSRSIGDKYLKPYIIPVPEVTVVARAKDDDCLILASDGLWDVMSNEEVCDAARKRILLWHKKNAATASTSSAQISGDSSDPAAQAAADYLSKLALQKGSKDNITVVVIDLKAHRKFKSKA

B4: AD-OsPP2C06 (protein, UniProt Q0JLP9 1-467)
chain: MEDVAVAAALAPAPATAPVFSPAAAGLTLIAAAAADPIAAVVAGAMDGVVTVPPVRTASAVEDDAVAPGRGEEGGEASAVGSPCSVTSDCSSVASADFEGVGLGFFGAAADGGAAMVFEDSAASAATVEAEARVAAGARSVFAVECVPLWGHKSICGRRPEMEDAVVAVSRFFDIPLWMLTGNSVVDGLDPMSFRLPAHFFGVYDGHGGAQVANYCRERLHAALVEELSRIEGSVSGANLGSVEFKKKWEQAFVDCFSRVDEEVGGNASRGEAVAPETVGSTAVVAVICSSHIIVANCGDSRAVLCRGKQPVPLSVDHKPNREDEYARIEAEGGKVIQWNGYRVFGVLAMSRSIGDRYLKPWIIPVPEITIVPRAKDDECLVLASDGLWDVMSNEEVCDVARKRILLWHKKNGTNPASAPRSGDSSDPAAEAAAECLSKLALQKGSKDNISVIVVDLKAHRKFKSKS
binding [1]: binds

B5: AD-OsPP2C09 (protein, UniProt Q5N9N2 1-414)
chain: MAEICCEEAMSPPATATAAVAAAVSASAAAAVSSAIDRRRRRMEMRRIRIASDLELQAGEDGRPGKRQRLARTASGAPRPDEDSASERPSCGRTEEFPRYGVTAVCGRRREMEDAVSIRPDFLPASGKFHFYGVFDGHGCSHVATTCQDRMHEIVAEEHNKGASGEVAPWRDVMEKSFARMDGEVGNRASTRSDDEPACPCEQQTPSRRDHAGSTAVVAVVSPTQVVVANAGDSRAVISRAGVPVALSVDHKPDRPDELERIEAAGGRVIYWDGARVLGVLAMSRAIGDGYLKPYVTSEPEVTVTERTDDDECLILASDGLWDVVTNEMACEVVRACFHNNGPPAPAARPSGVPSSAEAAETENGGAASVKGISKAESSDKACSDAAMLLTKLALARRSADNVSVVVVDLRRGL
binding [1]: binds

B7: AD-OsPP2C50 (protein, UniProt Q6L5H6 1-387)
chain: T3 sequence
binding [1]: binds

Next, values leading:

binding [1]: binds
B1: AD-OsPP2C53 (protein, UniProt Q6L4R7 1-445)
chain: T4 sequence

binding [2]: binds
B2: OsPP2C53-VC (protein, UniProt Q6L4R7 1-445)
chain: T4 sequence

binding [3]: binds | binding [4]: binds
B3: SAPK10-Flag (protein, UniProt Q75H77 1-362)
chain: T1 sequence

binding [2]: binds
B6: OsPP2C50-VC (protein, UniProt Q6L5H6 1-387)
chain: T3 sequence
